For test [1], the target named is T1, B cell-specific Moloney murine leukemia virus integration site 1 (BMI1) (mouse (endogenous in undifferentiated spermatogonia)) (UniProt P25916).
T1 sequence: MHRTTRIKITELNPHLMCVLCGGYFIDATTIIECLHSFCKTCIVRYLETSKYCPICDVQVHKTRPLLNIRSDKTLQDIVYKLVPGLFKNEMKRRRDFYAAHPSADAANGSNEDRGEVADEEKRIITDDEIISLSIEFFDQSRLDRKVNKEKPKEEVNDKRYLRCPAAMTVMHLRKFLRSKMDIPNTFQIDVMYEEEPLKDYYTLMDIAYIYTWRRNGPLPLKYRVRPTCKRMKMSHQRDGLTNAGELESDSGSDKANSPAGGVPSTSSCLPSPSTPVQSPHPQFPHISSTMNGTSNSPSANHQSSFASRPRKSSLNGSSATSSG
The test is described as follows: co-IP; endogenous proteins; lysate of mouse undifferentiated spermatogonia (M-PER with protease inhibitors); primary antibody overnight at 4°C, Protein A/G Plus-Agarose 2 h at 4°C; three washes with IP buffer; Western blotting. On the technique in general: In western blotting, separated proteins are transferred to a membrane and probed.

Protein sequences, listed by entry. Tags and fused reporters are not part of them.
UniProt Q9CQJ4: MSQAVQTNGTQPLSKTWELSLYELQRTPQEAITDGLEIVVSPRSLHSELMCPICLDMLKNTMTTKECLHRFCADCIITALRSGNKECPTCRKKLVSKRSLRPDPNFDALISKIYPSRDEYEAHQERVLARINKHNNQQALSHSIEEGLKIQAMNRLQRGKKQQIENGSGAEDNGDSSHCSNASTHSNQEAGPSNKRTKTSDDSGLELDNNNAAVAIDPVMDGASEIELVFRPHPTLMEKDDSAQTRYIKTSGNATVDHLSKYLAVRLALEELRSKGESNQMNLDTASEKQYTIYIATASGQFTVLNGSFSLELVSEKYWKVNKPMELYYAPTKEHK
UniProt Q8BX22: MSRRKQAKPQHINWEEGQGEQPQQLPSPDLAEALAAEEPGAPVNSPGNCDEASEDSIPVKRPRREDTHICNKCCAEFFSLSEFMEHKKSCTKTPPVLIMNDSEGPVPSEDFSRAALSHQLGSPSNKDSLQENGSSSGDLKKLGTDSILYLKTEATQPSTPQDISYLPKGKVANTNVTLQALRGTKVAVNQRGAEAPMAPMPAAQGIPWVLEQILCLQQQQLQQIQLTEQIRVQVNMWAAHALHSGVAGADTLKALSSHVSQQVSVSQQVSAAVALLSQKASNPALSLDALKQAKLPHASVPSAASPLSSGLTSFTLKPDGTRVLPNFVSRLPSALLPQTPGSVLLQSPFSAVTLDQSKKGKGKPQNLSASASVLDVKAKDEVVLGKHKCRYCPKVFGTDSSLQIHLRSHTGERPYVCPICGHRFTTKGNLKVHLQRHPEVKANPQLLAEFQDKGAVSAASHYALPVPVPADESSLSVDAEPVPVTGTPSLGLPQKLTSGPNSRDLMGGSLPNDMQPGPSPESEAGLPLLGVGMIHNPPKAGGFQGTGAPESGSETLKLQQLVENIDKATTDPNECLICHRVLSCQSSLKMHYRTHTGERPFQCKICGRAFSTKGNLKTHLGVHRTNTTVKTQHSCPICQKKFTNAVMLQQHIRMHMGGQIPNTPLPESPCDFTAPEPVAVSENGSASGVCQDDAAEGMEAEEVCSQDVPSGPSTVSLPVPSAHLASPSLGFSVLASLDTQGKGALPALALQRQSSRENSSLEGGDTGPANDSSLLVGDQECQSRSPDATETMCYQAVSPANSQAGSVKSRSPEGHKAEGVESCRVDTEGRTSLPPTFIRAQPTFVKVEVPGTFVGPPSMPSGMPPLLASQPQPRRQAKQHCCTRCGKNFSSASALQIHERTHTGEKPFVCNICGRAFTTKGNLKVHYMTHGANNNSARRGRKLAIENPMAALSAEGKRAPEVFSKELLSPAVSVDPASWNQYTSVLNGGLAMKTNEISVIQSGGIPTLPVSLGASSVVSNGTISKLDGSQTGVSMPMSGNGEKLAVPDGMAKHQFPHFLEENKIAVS

Compound in test [2]: T2, B cell-specific Moloney murine leukemia virus integration site 1 (BMI1) (mouse (endogenous in undifferentiated spermatogonia)) (UniProt P25916)
T2 sequence: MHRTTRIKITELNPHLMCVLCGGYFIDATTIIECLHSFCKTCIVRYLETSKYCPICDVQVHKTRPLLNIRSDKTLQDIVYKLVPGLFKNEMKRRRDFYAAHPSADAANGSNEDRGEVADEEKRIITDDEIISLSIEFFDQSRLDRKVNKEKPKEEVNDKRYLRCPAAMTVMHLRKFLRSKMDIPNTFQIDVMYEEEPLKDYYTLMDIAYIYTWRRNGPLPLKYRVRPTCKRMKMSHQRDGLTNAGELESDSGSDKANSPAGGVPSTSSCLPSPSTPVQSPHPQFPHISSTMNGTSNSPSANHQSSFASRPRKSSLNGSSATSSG
The test is described as above. This is another data set of the same source.

Read-outs that look alike come from different tables or passages of the source. No constants are given. Whether binding was seen depends on the method and setting. Binding seen in cells or lysates may run through a third protein. Some binding calls cover weakened binding; strength is not graded here.

This is an account of results in PMC10164956.

On to “RNF2 (the core member of PRC1) (from UniProt Q9CQJ4 1-336)”, for which, in test [1], the binding result was “binds”. Same read-out and setting: as for “Sal-like 4 (SALL4) (from UniProt Q8BX22 1-1067)”, the entry is “binds”.

B1: PHC1 (protein, UniProt Q64028 1-1010)
chain: METESEQNSSSTNGSSSSGASSRPQIAQMSLYERQAVQALQALQRQPNAAQYFHQFMLQQQLSNAQLHSLAAVQQATIAASRQASSPNSSTAQQQTATTQASMNLATTSAAQLISRSQSVSSPSATTLTQSVLLGNTTSPPLNQSQAQMYLRPQLGNLLQVNRTLGRNVPLASQLILMPNGAVAAVQQEVPPAQSPGVHADADQVQNLAVRNQQASAQGPQMPGSTQKAIPPGASPVSGLSQTSSQALAVAQASSGASGQSLNLSQAGGGSGNSLPGSMGPGGGGQAPGGLGQLPSSGLTGGSCPRKGTGVVQPLPAAQTVTVSQGSQTEAESAAAKKAEADGSGQQSVGMNLTRTATPAPSQTLISSATYTQIQPHSLIQQQQQIHLQQKQVVIQQQIAIHHQQQFQHRQSQLLHTATHLQLAQQQQQQQQQQQQQQQQQQQQQQGTTLTAPQPPQVPPTQQVPPSQSQQQAQTLVVQPMLQSSPLTLPPEPTSKPPIPIQSKPPVAPIKPPQLGAAKMSATQQPPPHIPVQVVGTRQPGSAQAQALGLAQLAAAVPTPRGITGAVQPGQAHLASSPPSSQAAPGALQECPPALAAGMTLAPVQGTAHVVKGGPTASSPVVAQVPAAFYMQSVHLPGKAQTLAVKRKAESEEERDDLSALASVLPTKASPAAESPKVIEEKNSLGEKAEPVASLNANPPNSDLVALAPTPSAPPPTLALVSRQMGDSKPPQAIVKPQILTHIIEGFVIQEGAEPFPVGCSQFLKETKKPLQAGLPTGLNESQPSGPLGGDSPSVELEKKANLLKCEYCGKYAPAEQFRGSKRFCSMTCAKRYNVSCSHQFRLKRKKMKEFQEASYARVRRRGPRRSSSDIARAKIQGKRHRGQEDSSRGSDNSSYDEALSPTSPGPLSVRAGHGERDLGNTITTPSTPELQGINPVFLSSNPSQWSVEEVYEFIASLQGCQEIAEEFRSQEIDGQALLLLKEEHLMSAMNIKLGPALKICAKINVLKET
For B1, in test [2], the binding entry is given as “binds”.
